No constants are given. Whether binding was seen depends on the method and setting. A result given as binding can be weak or reduced; the word gives no strength.

Chains of the proteins cited; added tags and fusions are not shown. Lines headed by an entry give the natural chain unless they say otherwise; changes in a name come on top.
UniProt P35817: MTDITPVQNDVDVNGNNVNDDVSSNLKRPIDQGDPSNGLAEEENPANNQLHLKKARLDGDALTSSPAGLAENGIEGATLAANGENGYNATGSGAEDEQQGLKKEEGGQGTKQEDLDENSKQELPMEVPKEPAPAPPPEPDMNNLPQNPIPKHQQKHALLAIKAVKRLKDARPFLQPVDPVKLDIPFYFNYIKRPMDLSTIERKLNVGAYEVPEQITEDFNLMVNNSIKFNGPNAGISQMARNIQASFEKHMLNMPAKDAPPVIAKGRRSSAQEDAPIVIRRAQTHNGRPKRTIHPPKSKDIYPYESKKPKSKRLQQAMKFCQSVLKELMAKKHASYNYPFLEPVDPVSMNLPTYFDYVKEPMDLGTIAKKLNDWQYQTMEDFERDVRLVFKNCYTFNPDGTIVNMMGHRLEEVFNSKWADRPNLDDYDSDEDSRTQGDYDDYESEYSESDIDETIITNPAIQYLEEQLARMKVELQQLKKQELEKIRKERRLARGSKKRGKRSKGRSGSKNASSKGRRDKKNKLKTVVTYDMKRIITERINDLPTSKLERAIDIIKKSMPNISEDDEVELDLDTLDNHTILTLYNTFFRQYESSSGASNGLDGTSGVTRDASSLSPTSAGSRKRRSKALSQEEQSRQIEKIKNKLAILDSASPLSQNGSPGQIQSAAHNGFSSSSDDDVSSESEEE

This experiment addresses T1, Taf7 (WT) (S. cerevisiae) (UniProt Q05021).
T1 sequence: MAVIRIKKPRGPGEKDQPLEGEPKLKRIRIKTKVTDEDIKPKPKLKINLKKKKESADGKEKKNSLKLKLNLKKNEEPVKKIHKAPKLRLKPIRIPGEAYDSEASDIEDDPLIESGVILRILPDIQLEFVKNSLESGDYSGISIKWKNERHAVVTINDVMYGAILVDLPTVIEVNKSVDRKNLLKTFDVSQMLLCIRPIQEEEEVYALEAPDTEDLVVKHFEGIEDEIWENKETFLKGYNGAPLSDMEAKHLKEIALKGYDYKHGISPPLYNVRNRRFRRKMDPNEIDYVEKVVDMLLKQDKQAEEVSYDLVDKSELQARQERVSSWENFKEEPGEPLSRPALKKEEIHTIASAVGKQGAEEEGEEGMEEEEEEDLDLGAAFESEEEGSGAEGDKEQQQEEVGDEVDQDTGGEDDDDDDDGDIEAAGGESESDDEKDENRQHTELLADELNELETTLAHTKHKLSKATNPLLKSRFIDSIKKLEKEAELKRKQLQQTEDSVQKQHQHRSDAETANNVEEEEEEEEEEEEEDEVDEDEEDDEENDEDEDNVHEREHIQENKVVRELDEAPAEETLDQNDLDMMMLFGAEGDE
The experiment can be described thus: two-hybrid; Matchmaker Gold Y2H system; strain Y2HGold co-transformed with Gal4-BD (pGBKT7) and Gal4-AD (pGADT7) plasmids; tenfold serial dilutions spotted on SC-Leu-Trp and SC-Leu-Trp-His plates, 30°C, imaged daily for at least 4 days.

Take “Bdf1 ET domain with four conserved acidic residues substituted with alanine (S. cerevisiae) (domain or fragment)”: the binding result is “no binding”.

Turning to “Bdf1 ET domain (WT) (from UniProt P35817) (domain or fragment)”, the binding entry was “binds”.

The values are drawn from paper PMC13373324.
